Source: paper PMC6497791

Chains of the proteins cited; added tags and fusions are not shown. Residues count along the entry.
UniProt P22723, residues 39-474: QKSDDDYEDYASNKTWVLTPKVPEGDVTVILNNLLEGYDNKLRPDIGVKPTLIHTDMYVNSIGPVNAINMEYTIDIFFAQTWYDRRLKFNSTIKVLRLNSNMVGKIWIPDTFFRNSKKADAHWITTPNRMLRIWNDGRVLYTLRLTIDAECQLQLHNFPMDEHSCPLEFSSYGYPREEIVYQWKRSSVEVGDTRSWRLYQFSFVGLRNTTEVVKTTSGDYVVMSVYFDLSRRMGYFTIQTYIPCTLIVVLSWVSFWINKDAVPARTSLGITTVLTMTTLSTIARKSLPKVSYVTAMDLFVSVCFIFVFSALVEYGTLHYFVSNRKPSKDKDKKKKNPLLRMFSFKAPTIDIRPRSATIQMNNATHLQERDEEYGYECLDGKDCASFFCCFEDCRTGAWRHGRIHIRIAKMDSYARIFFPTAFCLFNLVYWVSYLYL

B1: ELAV like RNA binding protein 3 (protein, UniProt Q60900-2 1-360)
chain: MVTQILGAMESQVGGGPAGPALPNGPLLGTNGATDDSKTNLIVNYLPQNMTQDEFKSLFGSIGDIESCKLVRDKITGQSLGYGFVNYSDPNDADKAINTLNGLKLQTKTIKVSYARPSSASIRDANLYVSGLPKTMSQKEMEQLFSQYGRIITSRILLDQATGVSRGVGFIRFDKRIEAEEAIKGLNGQKPLGAAEPITVKFANNPSQKTGQALLTHLYQSSARRYAGPLHHQTQRFRLDNLLNMAYGVKRFSPIAIDGMSGLAGVGLSGGAAGAGWCIFVYNLSPEADESVLWQLFGPFGAVTNVKVIRDFTTNKCKGFGFVTMTNYDEAAMAIASLNGYRLGERVLQVSFKTSKQHKA
B2: 2′,3′-cyclic nucleotide 3′ phosphodiesterase (protein, UniProt P16330 1-420)
chain: MNTSFTRKSHTFLPKLFFRKMSSSGAKEKPELQFPFLQDEDTVATLHECKTLFILRGLPGSGKSTLARLILEKYHDGTKMVSADAYKIIPGSRADFSEAYKRLDEDLAGYCRRDIRVLVLDDTNHERERLDQLFEMADQYQYQVVLVEPKTAWRLDCAQLKEKNQWQLSADDLKKLKPGLEKDFLPLYFGWFLTKKSSETLRKAGQVFLEELGNHKAFKKELRHFISGDEPKEKLELVSYFGKRPPGVLHCTTKFCDYGKAAGAEEYAQQEVVKRSYGKAFKLSISALFVTPKTAGAQVVLTDQELQLWPSDLDKPSASEGLPPGSRAHVTLGCAADVQPVQTGLDLLDILQQVKGGSQGEAVGELPRGKLYSLGKGRWMLSLTKKMEVKAIFTGYYGKGKPVPIHGSRKGGAMQICTII
B3: EH domain containing 3 (protein, UniProt Q9QXY6 1-535)
chain: MFSWLGNDDRRKKDPEVFQTVSDGLKKLYKTKLLPLEEYYRFHEFHSPALEDADFDNKPMVLLVGQYSTGKTTFIRYLLEQDFPGMRIGPEPTTDSFIAVMQGDVEGIIPGNALVVDPKKPFRKLNAFGNAFLNRFVCAQLPNAVLESISVIDTPGILSGEKQRISRGYDFAAVLEWFAERVDRIILLFDAHKLDISDEFSEVIKALKNHEDKMRVVLNKADQIETQQLMRVYGALMWSLGKIVNTPEVIRVYIGSFWSHPLLIPDNRKLFEAEEQDLFRDIQSLPRNAALRKLNDLIKRARLAKVHAYIISSLKKEMPSVFGKDTKKKELVNNLAEIYGRIEREHQISPGDFPNLKRMQDQLQAQDFSKFQPLKSKLLEVVDDMLAHDIAQLMVLVRQEETQRPVQMVKGGAFEGTLQGPFGHGYGEGAGEGIDDAEWVVARDKPMYDEIFYTLSPVDGKITGANAKKEMVRSKLPNSVLGKIWKLADIDKDGMLDDEEFALANHLIKVKLEGHELPSELPAHLLPPSKRKVSE
B4: Interleukin enhancer binding factor 3 (protein, UniProt Q9Z1X4-3 1-911)
chain: MALYHHHFITRRRRRPMRIFVNDDRHVMAKHSSVYPTQEELEAVQNMVSHTERALKAVSDWIDEQEKGNSELSEAENMDTPPDDESKEGAGEQKAEHMTRTLRGVMRVGLVAKGLLLKGDLDLELVLLCKEKPTTALLDKVADNLAIQLTTVTEDKYEILQSVDDAAIVIKNTKEPPLSLTIHLTSPVVREEMEKVLAGETLSVNDPPDVLDRQKCLAALASLRHAKWFQARANGLKSCVIVIRVLRDLCTRVPTWGPLRGWPLELLCEKSIGTANRPMGAGEALRRVLECLASGIVMPDGSGIYDPCEKEATDAIGHLDRQQREDITQSAQHALRLAAFGQLHKVLGMDPLPSKMPKKPKNENPVDYTVQIPPSTTYAITPMKRPMEEDGEEKSPSKKKKKIQKKEEKADPPQAMNALMRLNQLKPGLQYKLISQTGPVHAPIFTMSVEVDGSNFEASGPSKKTAKLHVAVKVLQDMGLPTGAEGRDSSKGEDSAEESDGKPAIVAPPPVVEAVSNPSSVFPSDATTEQGPILTKHGKNPVMELNEKRRGLKYELISETGGSHDKRFVMEVEVDGQKFQGAGSNKKVAKAYAALAALEKLFPDTPLALEANKKKRTPVPVRGGPKFAAKPHNPGFGMGGPMHNEVPPPPNIRGRGRGGNIRGRGRGRGFGGANHGGGYMNAGAGYGSYGYSSNSATAGYSQFYSNGGHSGNAGGGGSGGGGGSSSYSSYYQGDSYNSPVPPKHAGKKPLHGGQQKASYSSGYQSHQGQQQPYNQSQYSSYGTPQGKQKGYGHGQGSYSSYSNSYNSPGGGGGSDYSYDSKFNYSGSGGRSGGNSYGSSGSSSYNTGSHGGYGTGSGGSSSYQGKQGGYSSQSNYSSPGSSQSYSGPASSYQSSQGGYSRNTEHSMNYQYR
B5: Ubiquinol-cytochrome c reductase complex III subunit VII (protein, UniProt Q9CQ69 1-82)
chain: MGREFGNLARIRHVISYSLSPFEQRAFPSYFSKGIPNVLRRTRERILRVAPPFVVVYLIYTWGNQEFEQSKRKNPAMYENDK
B6: Glutathione S-transferase mu 3 (protein, UniProt P48774 1-224)
chain: MSSKSMVLGYWDIRGLAHAIRMLLEFTDTSYEEKRYICGEAPDYDRSQWLDVKFKLDLDFPNLPYLMDGKNKITQSNAILRYIARKHNMCGDTEEEKIRVDIMENQIMDFRMQLVRLCYNSNHENLKPQYLEQLPAQLKQFSLFLGKFTWFAGEKLTFVDFLTYDVLDQNRIFEPKCLDEFPNLKAFMCRFEALEKIAAFLQSDRFFKMPINNKMAKWGNKCLC

Molecular target: GABA type A receptor γ2 subunit (mouse (endogenous in cortical tissue)) (UniProt P22723)
Experiment: affinity purification with mass spectrometry; mouse cortical tissue lysate (mice injected with vehicle or 10 mg/kg DZP, 12 h) in co-IP buffer (50 mM Tris HCl pH 7.6, 50 mM NaCl, 0.25% Igepal, 1 mM EDTA), immunoprecipitated overnight with rabbit γ2 subunit antibody or rabbit IgG, Protein A Sepharose, 4°C; label-free HPLC-ESI-MS/MS; hits at least 3:1 enriched over IgG control

| Binder | binding |
| --- | --- |
| B1 | binds |
| B2 | binds |
| B3 | binds |
| B4 | binds |
| B5 | binds |
| B6 | binds |

No constants are given. Whether binding was seen depends on the method and setting. Binding seen in cells or lysates may run through a third protein. These calls come from enrichment with a bait or labelling near it, and not all partners need be listed.
